Consider two molecules from PMC6965642, “The novel missense mutation Met48Lys in FKBP22 changes its structure and functions” (Scientific Reports, 2020).

The chains behind the UniProt entries cited, without tags or fusion partners. Residues count along the entry.
UniProt P04258: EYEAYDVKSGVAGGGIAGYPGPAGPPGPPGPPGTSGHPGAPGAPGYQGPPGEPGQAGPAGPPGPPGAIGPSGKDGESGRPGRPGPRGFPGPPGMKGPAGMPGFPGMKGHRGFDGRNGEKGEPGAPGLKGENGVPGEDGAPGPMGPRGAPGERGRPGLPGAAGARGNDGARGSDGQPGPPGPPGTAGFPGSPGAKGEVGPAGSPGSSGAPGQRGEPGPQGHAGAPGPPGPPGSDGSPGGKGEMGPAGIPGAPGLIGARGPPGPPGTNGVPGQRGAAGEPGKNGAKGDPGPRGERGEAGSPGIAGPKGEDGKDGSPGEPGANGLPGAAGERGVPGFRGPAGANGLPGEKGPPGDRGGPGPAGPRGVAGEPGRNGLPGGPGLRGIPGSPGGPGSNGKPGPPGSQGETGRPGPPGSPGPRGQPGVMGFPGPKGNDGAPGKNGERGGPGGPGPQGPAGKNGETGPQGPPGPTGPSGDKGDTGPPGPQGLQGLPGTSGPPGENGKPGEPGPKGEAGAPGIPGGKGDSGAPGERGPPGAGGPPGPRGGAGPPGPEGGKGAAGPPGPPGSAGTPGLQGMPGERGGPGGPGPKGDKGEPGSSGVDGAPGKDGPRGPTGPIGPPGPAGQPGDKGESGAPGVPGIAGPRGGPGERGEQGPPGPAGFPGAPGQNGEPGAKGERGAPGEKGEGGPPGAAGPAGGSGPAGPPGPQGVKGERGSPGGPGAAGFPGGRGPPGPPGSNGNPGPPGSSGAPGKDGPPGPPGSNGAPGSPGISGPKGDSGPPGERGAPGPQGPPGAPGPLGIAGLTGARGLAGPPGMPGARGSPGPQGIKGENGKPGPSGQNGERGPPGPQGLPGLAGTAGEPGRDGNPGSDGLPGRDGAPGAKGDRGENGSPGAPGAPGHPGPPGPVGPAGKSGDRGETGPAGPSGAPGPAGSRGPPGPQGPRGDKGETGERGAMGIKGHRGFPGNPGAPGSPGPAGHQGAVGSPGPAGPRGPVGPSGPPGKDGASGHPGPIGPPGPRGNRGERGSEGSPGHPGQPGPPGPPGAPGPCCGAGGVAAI
UniProt Q03692, residues 19-680: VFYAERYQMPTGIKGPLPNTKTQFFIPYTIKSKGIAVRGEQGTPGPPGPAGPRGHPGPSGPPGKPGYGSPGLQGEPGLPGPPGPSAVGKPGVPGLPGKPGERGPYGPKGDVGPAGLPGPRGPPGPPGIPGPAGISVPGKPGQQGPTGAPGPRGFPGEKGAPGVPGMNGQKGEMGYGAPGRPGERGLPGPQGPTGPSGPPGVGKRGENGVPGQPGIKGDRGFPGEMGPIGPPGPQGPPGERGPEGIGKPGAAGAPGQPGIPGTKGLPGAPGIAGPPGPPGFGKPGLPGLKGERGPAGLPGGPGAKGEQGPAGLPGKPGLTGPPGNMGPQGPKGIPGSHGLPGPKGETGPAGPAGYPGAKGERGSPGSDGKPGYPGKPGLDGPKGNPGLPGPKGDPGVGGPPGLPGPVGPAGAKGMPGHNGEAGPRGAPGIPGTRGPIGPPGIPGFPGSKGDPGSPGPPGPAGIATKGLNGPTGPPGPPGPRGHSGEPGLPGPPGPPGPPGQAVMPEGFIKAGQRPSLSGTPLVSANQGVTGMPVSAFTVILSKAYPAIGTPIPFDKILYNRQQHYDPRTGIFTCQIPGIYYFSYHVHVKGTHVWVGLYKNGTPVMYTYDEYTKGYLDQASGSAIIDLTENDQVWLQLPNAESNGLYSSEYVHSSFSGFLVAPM

The target of experiment [1] is bovine type III collagen (bovine) (UniProt P04258). Description: SPR; BIAcore X; collagens immobilised on CM5 chips by amide coupling, FKBP22 injected; 20 °C; HBS-P (10 mM Hepes pH 7.4, 150 mM NaCl, 0.005% Surfactant P20) with 1 mM CaCl2; flow 10 µL/min; steady-state affinity model for type IV collagen - WT FKBP22, Langmuir-binding model for type X collagen - M48K FKBP22; both purified.

In experiment [2] the target is T1, human recombinant type X collagen (human, UniProt Q03692 19-680).
T1 construct: type X collagen, human, recombinant; source: 293 cells, purified as described previously
The description is as above.

Numbering of substitutions follows the chain as printed. Numbers in names are those of the source. These are yes or no findings as the source states them, for the method shown. Some binding calls cover weakened binding; strength is not graded here.

B1: recombinant human M48K FKBP22 (Met48Lys) (enzyme)
chain: LIPEPEVKIEVLQKPFICHRKTKGGDLKLVHYEGYLEKDGSLFHSTHKHNNGQPIWFTLGILEALKGWDQGLKGMCVGEKRKLIIPPALGYGKEGKGKIPPESTLIFNIDLLEIRNGPRSHESFQEMDLNDDWKLSKDEVKAYLKKEFEKHGAVVNESHHDALVEDIFDKEDEDKDGFISAREFTYKHDEL
notes: The mutation was found in a patient with kEDS; PDB 4MSP is the WT structure (parent); also called mutant FKBP22; source: E. coli BL21 (DE3), solubilised with 2 M urea, purified (Co2+-chelating column, enterokinase cleavage, Phenyl column)
Regarding B1, in experiment [1], the binding result was “binds”.

B2: recombinant human wild type FKBP22 (FK506 Binding Protein 22 kDa) (enzyme, UniProt Q9NWM8 21-211)
chain: B1 chain with K28M
B2: the binding entry in experiment [2] and in experiment [1] was “binds” throughout.
